Measured values published in article PMC6745501, “Plant photoreceptors and their signaling components compete for COP1 binding via VP peptide motifs” (The EMBO Journal, 2019).
These are yes or no findings as the source states them, for the method shown.

By UniProt entry, the sequences of proteins in these tests, tags left out. Where a name states a change or a piece, a line headed by the entry shows the natural chain unless it says otherwise.
UniProt O24646: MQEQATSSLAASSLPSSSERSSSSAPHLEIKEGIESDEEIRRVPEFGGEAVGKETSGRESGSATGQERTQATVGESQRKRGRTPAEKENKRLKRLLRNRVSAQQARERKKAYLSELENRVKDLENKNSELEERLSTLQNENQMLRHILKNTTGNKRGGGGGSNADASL

Target: T1, COP1^Trp467Ala WD40 domain (Arabidopsis) (UniProt P43254)
T1 sequence: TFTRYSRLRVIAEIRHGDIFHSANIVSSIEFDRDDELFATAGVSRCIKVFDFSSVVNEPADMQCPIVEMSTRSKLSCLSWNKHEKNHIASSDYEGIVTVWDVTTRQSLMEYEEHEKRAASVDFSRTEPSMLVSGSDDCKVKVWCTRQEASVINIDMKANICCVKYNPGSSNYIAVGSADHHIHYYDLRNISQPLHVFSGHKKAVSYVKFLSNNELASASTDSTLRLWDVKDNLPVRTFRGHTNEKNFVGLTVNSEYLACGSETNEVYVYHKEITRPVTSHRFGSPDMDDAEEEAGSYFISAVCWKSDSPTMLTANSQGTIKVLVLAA
Test: condition: 1,600 μM peptide into 112 μM COP1^Trp467Ala; ITC; VP peptide (titrant, 500-3,000 μM) injected into COP1 WD40 in the cell at about 10-fold lower concentration; 150 mM NaCl, 20 mM HEPES 7.4, 2 mM BME; 25°C; one-site binding model; both purified

binding: no binding
B1: HY5^39–48 VP peptide (peptide, UniProt O24646 39-48)
peptide: EIRRVPEFGG
